In this test the target is T1, GST-KAT8 FL (human) (UniProt Q9H7Z6).
T1 sequence: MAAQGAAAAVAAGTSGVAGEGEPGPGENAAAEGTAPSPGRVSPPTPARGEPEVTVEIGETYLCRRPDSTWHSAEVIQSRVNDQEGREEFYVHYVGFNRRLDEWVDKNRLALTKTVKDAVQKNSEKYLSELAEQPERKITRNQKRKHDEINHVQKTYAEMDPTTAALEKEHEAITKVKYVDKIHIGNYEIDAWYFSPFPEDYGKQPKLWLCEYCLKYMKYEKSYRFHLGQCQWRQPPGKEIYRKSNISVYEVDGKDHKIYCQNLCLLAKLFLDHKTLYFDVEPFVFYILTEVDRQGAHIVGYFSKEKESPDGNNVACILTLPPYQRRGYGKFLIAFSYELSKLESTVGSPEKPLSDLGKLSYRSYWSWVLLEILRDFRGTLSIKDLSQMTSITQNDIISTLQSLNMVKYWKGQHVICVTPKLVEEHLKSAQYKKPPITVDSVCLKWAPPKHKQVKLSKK
Briefly: pull-down; GST pull-down: His-tagged proteins incubated with GST fusion proteins in TEN buffers for 4 h at 4 °C, beads washed three times; Western blotting with anti-GST or anti-His and Coomassie staining; both purified. Background: Immunoblotting shows a protein as a band on a membrane.

No constants are given. Whether binding was seen depends on the method and setting. A result given as binding can be weak or reduced; the word gives no strength. Tags and fused reporters may be left off the sequences shown.

With “His-GCN5 N-terminus fragment (human) (domain or fragment)”, the binding entry is given as “binds”.

Values taken from publication PMC9970984.
